Assay results: publication PMC7858674
Results are given in words; binding and its absence hold for the method and conditions named. Some entries that bind do so weakly or less than the wild type.

Protein sequences, listed by entry. Tags and fused reporters are not part of them.
UniProt Q02248: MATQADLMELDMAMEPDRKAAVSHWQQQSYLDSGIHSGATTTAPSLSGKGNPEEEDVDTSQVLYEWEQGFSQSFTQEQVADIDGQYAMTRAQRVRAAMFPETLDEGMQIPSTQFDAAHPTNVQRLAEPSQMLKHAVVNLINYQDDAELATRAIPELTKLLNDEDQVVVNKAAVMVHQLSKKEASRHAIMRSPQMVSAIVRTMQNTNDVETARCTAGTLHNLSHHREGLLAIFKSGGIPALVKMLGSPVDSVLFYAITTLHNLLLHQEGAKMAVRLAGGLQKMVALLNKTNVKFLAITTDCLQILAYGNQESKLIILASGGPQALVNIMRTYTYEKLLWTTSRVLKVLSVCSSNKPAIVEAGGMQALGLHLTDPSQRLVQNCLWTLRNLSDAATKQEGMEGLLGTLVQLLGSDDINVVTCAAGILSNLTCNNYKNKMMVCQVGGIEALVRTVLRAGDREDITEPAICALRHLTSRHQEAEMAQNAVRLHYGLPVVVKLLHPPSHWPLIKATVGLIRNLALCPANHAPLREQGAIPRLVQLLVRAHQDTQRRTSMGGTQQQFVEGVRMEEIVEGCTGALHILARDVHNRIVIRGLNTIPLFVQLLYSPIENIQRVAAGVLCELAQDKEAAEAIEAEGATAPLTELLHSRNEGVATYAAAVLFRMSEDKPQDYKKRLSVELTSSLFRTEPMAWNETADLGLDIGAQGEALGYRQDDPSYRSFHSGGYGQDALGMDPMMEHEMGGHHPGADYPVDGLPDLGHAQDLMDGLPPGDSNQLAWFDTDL
UniProt Q3TKT4: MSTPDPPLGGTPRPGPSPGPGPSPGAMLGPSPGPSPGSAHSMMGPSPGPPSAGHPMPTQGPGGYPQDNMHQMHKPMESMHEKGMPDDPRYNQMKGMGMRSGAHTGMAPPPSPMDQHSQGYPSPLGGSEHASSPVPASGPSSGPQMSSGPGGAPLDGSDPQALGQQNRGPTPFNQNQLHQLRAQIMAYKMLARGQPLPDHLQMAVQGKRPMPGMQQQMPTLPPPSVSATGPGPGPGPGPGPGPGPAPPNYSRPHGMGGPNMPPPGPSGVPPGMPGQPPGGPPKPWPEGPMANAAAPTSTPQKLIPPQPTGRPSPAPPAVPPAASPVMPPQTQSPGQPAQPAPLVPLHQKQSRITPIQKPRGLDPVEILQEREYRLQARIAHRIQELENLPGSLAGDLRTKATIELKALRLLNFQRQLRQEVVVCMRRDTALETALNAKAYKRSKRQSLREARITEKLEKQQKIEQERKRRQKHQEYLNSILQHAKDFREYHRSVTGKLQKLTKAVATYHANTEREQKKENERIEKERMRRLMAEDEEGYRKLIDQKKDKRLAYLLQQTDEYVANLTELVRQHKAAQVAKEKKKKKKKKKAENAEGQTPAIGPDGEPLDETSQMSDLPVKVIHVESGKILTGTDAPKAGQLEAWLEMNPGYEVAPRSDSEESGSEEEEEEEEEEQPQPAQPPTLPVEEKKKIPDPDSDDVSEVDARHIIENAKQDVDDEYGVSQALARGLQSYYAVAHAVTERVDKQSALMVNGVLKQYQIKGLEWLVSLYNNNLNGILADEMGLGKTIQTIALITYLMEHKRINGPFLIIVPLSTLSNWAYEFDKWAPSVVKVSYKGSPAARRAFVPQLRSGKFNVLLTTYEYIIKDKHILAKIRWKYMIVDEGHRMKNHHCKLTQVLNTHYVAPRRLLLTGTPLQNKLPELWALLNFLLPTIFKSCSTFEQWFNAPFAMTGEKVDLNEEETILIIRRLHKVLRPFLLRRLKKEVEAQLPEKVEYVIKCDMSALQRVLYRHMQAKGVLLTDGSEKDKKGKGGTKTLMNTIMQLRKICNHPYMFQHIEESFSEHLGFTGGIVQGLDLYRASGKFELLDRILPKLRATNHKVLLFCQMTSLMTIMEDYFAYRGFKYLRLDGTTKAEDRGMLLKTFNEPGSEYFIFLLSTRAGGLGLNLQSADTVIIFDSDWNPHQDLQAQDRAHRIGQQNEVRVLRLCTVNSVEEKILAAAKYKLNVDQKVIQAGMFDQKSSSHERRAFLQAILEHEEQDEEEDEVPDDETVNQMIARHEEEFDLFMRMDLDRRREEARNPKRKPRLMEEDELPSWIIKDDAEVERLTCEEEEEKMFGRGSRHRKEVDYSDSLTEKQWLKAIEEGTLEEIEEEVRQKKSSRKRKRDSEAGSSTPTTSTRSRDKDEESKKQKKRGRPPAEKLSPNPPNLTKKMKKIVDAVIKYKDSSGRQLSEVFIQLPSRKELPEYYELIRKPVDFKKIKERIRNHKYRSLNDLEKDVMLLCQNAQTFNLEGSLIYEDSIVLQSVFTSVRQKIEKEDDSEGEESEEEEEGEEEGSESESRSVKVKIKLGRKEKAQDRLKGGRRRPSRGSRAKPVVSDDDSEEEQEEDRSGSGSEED

Target: β-catenin (mouse (endogenous in primary murine hepatocytes)) (UniProt Q02248)
Assay: Re-ChIP (sequential chromatin immunoprecipitation); primary murine hepatocytes treated with or without ConA (20 μg/ml) for 24 h; chromatin cross-linked with 1% formaldehyde, sonicated; first immune complexes eluted (1% SDS, 100 mM NaCO3), diluted in re-ChIP buffer and precipitated with a second antibody; read out on the Npnt promoter (Gapdh promoter as control)

Q: Which binding does the source give for “Brahma-related gene 1 (BRG1) (from UniProt Q3TKT4 1-1613)” here?
A: The binding was “binds”.
